Results: PMC5951673
Results are given in words; binding and its absence hold for the method and conditions named. In cells and extracts the contact can be indirect. Some results given as binding are weak or reduced against the parent protein; the word gives no strength. For some of these results: Sequences can lack the tags named with a protein.

Protein sequences, listed by entry. Tags and fused reporters are not part of them. Residues count along the entry.
UniProt Q13586, residues 23-685: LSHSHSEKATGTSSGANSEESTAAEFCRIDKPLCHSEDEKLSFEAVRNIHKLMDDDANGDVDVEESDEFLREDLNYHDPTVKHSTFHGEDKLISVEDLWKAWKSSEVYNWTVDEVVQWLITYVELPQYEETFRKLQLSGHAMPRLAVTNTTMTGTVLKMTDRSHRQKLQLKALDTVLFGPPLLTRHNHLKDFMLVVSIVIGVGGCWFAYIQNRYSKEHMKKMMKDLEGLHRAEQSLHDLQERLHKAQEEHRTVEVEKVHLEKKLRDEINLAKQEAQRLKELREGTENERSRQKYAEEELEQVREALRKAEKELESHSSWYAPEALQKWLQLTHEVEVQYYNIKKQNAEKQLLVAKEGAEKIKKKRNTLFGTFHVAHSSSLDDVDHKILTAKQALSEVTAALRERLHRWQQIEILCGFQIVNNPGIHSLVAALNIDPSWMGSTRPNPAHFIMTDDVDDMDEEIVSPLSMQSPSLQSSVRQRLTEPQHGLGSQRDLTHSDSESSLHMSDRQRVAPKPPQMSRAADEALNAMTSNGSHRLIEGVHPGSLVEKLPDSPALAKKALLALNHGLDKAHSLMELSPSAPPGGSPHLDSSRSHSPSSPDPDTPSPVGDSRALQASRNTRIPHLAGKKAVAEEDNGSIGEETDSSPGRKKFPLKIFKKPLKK

Assays:
[1] = biological target: T1, CLCA2, endogenous in MCF10A (human (endogenous in MCF10A)) (UniProt Q9UQC9); assay: co-IP; MCF10A cells grown to superconfluency and treated with CPA to activate STIM-1; endogenous proteins; vector or shRNA targeting CLCA2
T1 sequence: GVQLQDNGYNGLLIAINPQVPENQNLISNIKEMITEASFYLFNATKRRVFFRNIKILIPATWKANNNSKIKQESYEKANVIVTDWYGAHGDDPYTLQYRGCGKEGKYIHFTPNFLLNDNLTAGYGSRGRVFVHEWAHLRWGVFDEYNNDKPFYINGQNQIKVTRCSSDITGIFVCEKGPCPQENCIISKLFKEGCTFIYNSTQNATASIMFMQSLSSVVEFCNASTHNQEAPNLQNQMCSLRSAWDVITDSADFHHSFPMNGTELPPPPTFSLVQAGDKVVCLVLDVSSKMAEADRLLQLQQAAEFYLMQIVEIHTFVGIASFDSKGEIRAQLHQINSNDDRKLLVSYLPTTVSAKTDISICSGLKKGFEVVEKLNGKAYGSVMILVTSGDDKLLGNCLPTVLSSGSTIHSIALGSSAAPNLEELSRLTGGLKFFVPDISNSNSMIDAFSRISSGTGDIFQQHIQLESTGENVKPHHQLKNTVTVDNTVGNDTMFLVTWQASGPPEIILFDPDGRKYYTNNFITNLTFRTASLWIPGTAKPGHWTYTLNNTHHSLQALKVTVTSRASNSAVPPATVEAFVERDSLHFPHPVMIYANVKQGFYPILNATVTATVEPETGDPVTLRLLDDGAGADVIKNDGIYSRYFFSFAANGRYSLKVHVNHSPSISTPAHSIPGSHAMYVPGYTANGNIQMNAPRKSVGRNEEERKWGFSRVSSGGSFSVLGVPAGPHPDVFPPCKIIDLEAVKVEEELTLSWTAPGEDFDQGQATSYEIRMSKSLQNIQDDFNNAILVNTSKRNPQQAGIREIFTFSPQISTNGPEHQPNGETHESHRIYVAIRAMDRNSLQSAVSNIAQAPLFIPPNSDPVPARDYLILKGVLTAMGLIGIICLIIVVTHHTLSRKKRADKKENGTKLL

[2] = biological target: T2, CLCA2-Flag (human Chloride Channel Accessory 2, Flag-tagged) (human) (UniProt Q9UQC9); assay: co-IP; HEK293 cells transduced with CLCA2-flag or vector; cleared NP40 lysates (25mM Tris pH 7.6, 150mM NaCl, 0.5% NP-40); protein A/G beads washed four times; immunoblot, bands quantified by fluorimetric scans (Licor Odyssey); repeated on surface-biotinylated cells (Fig 5A)
T2 sequence: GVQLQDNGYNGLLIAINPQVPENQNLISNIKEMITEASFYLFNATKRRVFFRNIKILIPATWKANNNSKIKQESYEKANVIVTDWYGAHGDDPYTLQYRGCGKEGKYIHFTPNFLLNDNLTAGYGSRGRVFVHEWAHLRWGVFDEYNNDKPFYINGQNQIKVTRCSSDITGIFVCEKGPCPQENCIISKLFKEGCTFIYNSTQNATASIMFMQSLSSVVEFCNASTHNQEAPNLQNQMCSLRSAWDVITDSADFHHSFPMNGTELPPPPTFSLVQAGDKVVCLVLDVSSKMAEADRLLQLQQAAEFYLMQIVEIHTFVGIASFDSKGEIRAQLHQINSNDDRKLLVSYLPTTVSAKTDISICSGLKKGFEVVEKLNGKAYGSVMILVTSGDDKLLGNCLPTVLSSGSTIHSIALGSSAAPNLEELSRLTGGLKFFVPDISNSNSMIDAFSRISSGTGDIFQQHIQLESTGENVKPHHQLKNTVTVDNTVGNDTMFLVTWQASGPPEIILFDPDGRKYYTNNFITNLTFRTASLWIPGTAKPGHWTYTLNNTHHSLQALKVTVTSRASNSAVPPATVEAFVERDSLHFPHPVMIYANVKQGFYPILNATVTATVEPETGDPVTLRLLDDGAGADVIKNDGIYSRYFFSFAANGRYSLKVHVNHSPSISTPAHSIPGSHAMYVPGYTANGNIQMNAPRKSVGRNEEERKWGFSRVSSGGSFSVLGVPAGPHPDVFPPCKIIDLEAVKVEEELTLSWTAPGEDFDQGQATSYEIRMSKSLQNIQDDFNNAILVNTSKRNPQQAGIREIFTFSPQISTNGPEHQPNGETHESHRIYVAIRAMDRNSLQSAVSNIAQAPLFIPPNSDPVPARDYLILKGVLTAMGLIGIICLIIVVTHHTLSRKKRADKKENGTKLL

[3] = biological target: STIM-1 (Stromal Interaction Molecule 1) (human (endogenous in HEK293)) (UniProt Q13586); assay: as above
Bestrophin 1 = biological target: T3, Bestrophin 1 (UniProt O76090); assay: as above
T3 sequence: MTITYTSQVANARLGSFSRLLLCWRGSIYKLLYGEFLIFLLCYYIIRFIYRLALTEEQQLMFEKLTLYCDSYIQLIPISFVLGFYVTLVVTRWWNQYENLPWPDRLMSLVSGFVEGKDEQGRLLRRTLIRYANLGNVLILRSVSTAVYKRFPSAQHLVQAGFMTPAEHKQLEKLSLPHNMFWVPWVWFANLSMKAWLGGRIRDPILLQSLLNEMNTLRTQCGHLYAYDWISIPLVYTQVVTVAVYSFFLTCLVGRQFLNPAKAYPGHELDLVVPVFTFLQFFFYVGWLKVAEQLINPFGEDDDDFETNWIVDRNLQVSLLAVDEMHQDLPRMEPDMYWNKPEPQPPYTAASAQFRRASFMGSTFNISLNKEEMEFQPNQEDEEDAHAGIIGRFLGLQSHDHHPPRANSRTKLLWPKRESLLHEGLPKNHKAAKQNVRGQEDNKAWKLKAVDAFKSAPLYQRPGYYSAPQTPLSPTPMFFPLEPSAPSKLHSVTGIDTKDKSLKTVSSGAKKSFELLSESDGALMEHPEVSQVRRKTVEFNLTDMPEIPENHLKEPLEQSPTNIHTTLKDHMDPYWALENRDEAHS

Question: For “STIM-1, endogenous in MCF10A (from UniProt Q13586 23-685)”, which binding [1] is on record?
Answer: The binding was “binds”.

Question: Which binding [2] does the source give for “STIM-1 (Stromal Interaction Molecule 1) (from UniProt Q13586 23-685)” here?
Answer: The binding was “binds”.

B1: CLCA2-Flag (human Chloride Channel Accessory 2, Flag-tagged) (protein, UniProt Q9UQC9 32-943)
chain: GVQLQDNGYNGLLIAINPQVPENQNLISNIKEMITEASFYLFNATKRRVFFRNIKILIPATWKANNNSKIKQESYEKANVIVTDWYGAHGDDPYTLQYRGCGKEGKYIHFTPNFLLNDNLTAGYGSRGRVFVHEWAHLRWGVFDEYNNDKPFYINGQNQIKVTRCSSDITGIFVCEKGPCPQENCIISKLFKEGCTFIYNSTQNATASIMFMQSLSSVVEFCNASTHNQEAPNLQNQMCSLRSAWDVITDSADFHHSFPMNGTELPPPPTFSLVQAGDKVVCLVLDVSSKMAEADRLLQLQQAAEFYLMQIVEIHTFVGIASFDSKGEIRAQLHQINSNDDRKLLVSYLPTTVSAKTDISICSGLKKGFEVVEKLNGKAYGSVMILVTSGDDKLLGNCLPTVLSSGSTIHSIALGSSAAPNLEELSRLTGGLKFFVPDISNSNSMIDAFSRISSGTGDIFQQHIQLESTGENVKPHHQLKNTVTVDNTVGNDTMFLVTWQASGPPEIILFDPDGRKYYTNNFITNLTFRTASLWIPGTAKPGHWTYTLNNTHHSLQALKVTVTSRASNSAVPPATVEAFVERDSLHFPHPVMIYANVKQGFYPILNATVTATVEPETGDPVTLRLLDDGAGADVIKNDGIYSRYFFSFAANGRYSLKVHVNHSPSISTPAHSIPGSHAMYVPGYTANGNIQMNAPRKSVGRNEEERKWGFSRVSSGGSFSVLGVPAGPHPDVFPPCKIIDLEAVKVEEELTLSWTAPGEDFDQGQATSYEIRMSKSLQNIQDDFNNAILVNTSKRNPQQAGIREIFTFSPQISTNGPEHQPNGETHESHRIYVAIRAMDRNSLQSAVSNIAQAPLFIPPNSDPVPARDYLILKGVLTAMGLIGIICLIIVVTHHTLSRKKRADKKENGTKLL
Question: What does the source list for B1?
Answer: binding [3]: binds; binding (Bestrophin 1): no binding
